{"source": "paper PMC5863699", "about": "“Sensing iron availability via the fragile [4Fe–4S] cluster of the bacterial transcriptional repressor RirA† †Electronic supplementary information (ESI) available. See DOI: 10.1039/c7sc02801f” (Chemical Science, 2017)", "assay_in_all_cases": "EMSA", "key": {"[1]": {"target": "T1, [4Fe-4S] RirA (Rhizobium leguminosarum strain 8401 (pRL1JI)) (UniProt Q9AE46)", "T1 sequence (looked up)": "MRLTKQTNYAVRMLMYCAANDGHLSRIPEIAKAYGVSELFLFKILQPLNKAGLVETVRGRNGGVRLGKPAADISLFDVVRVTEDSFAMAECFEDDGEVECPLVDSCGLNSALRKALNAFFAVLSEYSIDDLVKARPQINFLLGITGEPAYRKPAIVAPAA", "conditions": "[4Fe-4S] cluster; EMSA: 10 mM Tris, 60 mM KCl, pH 7.52, on ice; 7.5% polyacrylamide gel in 1x TBE; recombinant protein; residues 1-160; label: 5'-FAM (FAM-modified primers)"}, "[2]": {"target": "T2, [2Fe-2S] RirA (Rhizobium leguminosarum strain 8401 (pRL1JI)) (UniProt Q9AE46)", "T2 sequence (looked up)": "T1 sequence (looked up)", "conditions": "[2Fe-2S] cluster; EMSA: 10 mM Tris, 60 mM KCl, pH 7.52, on ice; 7.5% polyacrylamide gel in 1x TBE; recombinant protein; residues 1-160; label: 5'-FAM (FAM-modified primers)"}, "[3]": {"target": "apo-RirA (Rhizobium leguminosarum strain 8401 (pRL1JI)) (UniProt Q9AE46)", "conditions": "no cluster (apo); EMSA: 10 mM Tris, 60 mM KCl, pH 7.52, on ice; 7.5% polyacrylamide gel in 1x TBE; recombinant protein; residues 1-160; label: 5'-FAM (FAM-modified primers)"}}, "note": "For part of these data: The exact form of at least one protein or probe is not confirmed. For part of these data: Tags and fusion partners may be left off the protein sequences shown.", "data": [{"sequence": "CGCAGCCATCGAGGGGGCCCCAGCTGGTCCCGCGGGCTGCCAGGACATCGGCATCTATGACCGGACGATCCGGGCTTACCGAGCGACAGGTCTCTTCCCGTAATTGCCGGCGACTCTAATGGGAGTGGCAGTTGCTCAAGTGAGGGCGATGGTCTTTTGCGCAAGTCCGCCGGCCGACCTATCCGGCGAGCCACTTCAGCGGCATCTGCAGTCGAAATACCCCTCCTACTCAGTCAGGTGATACTCTGGCGCGGGCGTGGTTCAAAATCAGCAGCAAATACGGGATCGTCGGGTCCATCCCCGTCAAGACCGGCAGGTTGGCCATCGTCTCGGTGCGCGCTTGGTCTCGCGCGCGGCAGAACTGCCTCTGTTTGGCAGCCCCACAGAACGTTACGAGGCCTCGATTCTACGTGCAACCTGTTCGGGAGTGTTGAAGGCGTGGATTTATCGATTTAAAGGTGACTAAAATAATCATCTTATGTTGACAAGGCCAATTTCGCTCCATAGGTTCCGCCCGCATCCGTGGCGTAGGGACCAAACAATGGCACGTGTTTTTTTGAATGTTTCTAATAATGTATCGCG (double strand) [fhuA promoter fragment (IRO box operator)]", "values": [{"measurement": "Kd", "setting": "[1]", "result": 172, "unit": "nM"}, {"measurement": "Kd", "setting": "[2]", "result": 482, "unit": "nM"}, {"measurement": "Kd", "setting": "[3]", "result": "> 5500", "unit": "nM"}]}]}
